Values from PubChem BioAssay AID504764 (Drosophila RNAi Screening Center, 2011)
In all, the deposit lists about 22,000 reagents; shown is a random part of those with a known target gene and a result. In the full data, 403 (1.9%) got an active call. 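Unnormalised raw counts per well; ratio z-scores behind the hit calls and whether each hit raises or lowers signal are not deposited.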 The numbers tell different reagents against one gene apart. A plus sign joins genes that one reagent is predicted to hit. The record does not give: the amount of reagent.

Screen: 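Genes whose knock-down alters Notch-dependent transcription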 (primary screen)
System: Drosophila Kc167 cells
Knock-down reagent: long dsRNA against Drosophila genes
Time to read-out: about 5 days (4 days dsRNA, then 24 h after transfection)
Treatment: transfection of constitutively active membrane-tethered Notch lacking the extracellular domain, read 24 h later
Measured: 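Light from a Notch-responsive E(spl)m3 luciferase reporter under active Notch, with control-promoter and no-Notch reporter wells to normalise; raw counts from paired wells a and b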
Reading the numbers: induced reporter light, run 1, well a and induced reporter light, run 1, well b: higher = more light from the Notch target reporter with active Notch; control promoter light, run 1, well a and control promoter light, run 1, well b: higher = more light from the viral control promoter (cell number, transfection, viability); uninduced reporter light, run 1, well a: higher = more light from the Notch target reporter without active Notch
Active means: 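Hit if the duplicate-averaged log2 ratio of induced to control-promoter light gives a plate-wise z beyond ±2, or induced to uninduced beyond ±1.8; weak-control or discordant-duplicate wells dropped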
Calls: active = modifier hit (raised or lowered Notch signal); inactive = not a hit

The first 4 records, to show the layout:
gene knocked down | reagent no. | induced reporter light, run 1, well a | induced reporter light, run 1, well b | control promoter light, run 1, well a | control promoter light, run 1, well b | uninduced reporter light, run 1, well a | outcome
CG5402 | 1 | 1.28e5 | 75405 | 1.59e5 | 1.08e5 | 11855 | inactive
Ubc10 | 1 | 46080 | 32610 | 35930 | 54170 | 3350 | inactive
CG6712 | 1 | 2.96e5 | 2.80e5 | 2.02e5 | 2.24e5 | 16365 | inactive
CG6040 | 1 | 1.23e5 | 1.76e5 | 1.97e5 | 1.53e5 | 14295 | inactive

The list itself, from the start:
gene knocked down | reagent no. | induced reporter light, run 1, well a | induced reporter light, run 1, well b | control promoter light, run 1, well a | control promoter light, run 1, well b | uninduced reporter light, run 1, well a | outcome
CG5402 | 1 | 1.28e5 | 75405 | 1.59e5 | 1.08e5 | 11855 | inactive
Ubc10 | 1 | 46080 | 32610 | 35930 | 54170 | 3350 | inactive
CG6712 | 1 | 2.96e5 | 2.80e5 | 2.02e5 | 2.24e5 | 16365 | inactive
CG6040 | 1 | 1.23e5 | 1.76e5 | 1.97e5 | 1.53e5 | 14295 | inactive
Brr2 | 1 | 27200 | 23950 | 15065 | 15350 | 1575 | inactive
maf-S | 1 | 66490 | 1.05e5 | 3.23e5 | 3.13e5 | 5860 | active
CG33290 | 1 | 1.66e5 | 1.60e5 | 2.33e5 | 1.89e5 | 13640 | inactive
CG1924 | 1 | 1.21e5 | 1.15e5 | 2.61e5 | 2.51e5 | 8085 | inactive
lama | 1 | 57100 | 52400 | 40935 | 22285 | 5988 | inactive
rtp | 1 | 1.46e5 | 1.41e5 | 96460 | 78175 | 9275 | inactive
CG15530 | 1 | 1.17e5 | 1.04e5 | 1.90e5 | 1.47e5 | 11635 | inactive
ArfGAP1 | 1 | 2.15e5 | 1.76e5 | 2.64e5 | 2.85e5 | 17185 | inactive
CG15203 | 1 | 1.25e5 | 1.08e5 | 2.14e5 | 2.15e5 | 9610 | inactive
SCAP | 1 | 1.60e5 | 1.47e5 | 1.76e5 | 1.74e5 | 10090 | inactive
SCAP | 2 | 1.86e5 | 2.14e5 | 1.74e5 | 1.66e5 | 13315 | inactive
CG8837 | 1 | 2.07e5 | 1.63e5 | 2.19e5 | 2.12e5 | 11925 | inactive
CG30338 | 1 | 37970 | 55675 | 59560 | 66015 | 2750 | inactive
CG3434 | 1 | 1.24e5 | 1.00e5 | 75260 | 35895 | 10850 | inactive
CG15517 | 1 | 99980 | 1.02e5 | 1.49e5 | 1.49e5 | 9620 | inactive
mrva | 1 | 1.26e5 | 1.03e5 | 68455 | 25430 | 8585 | inactive
sbb | 1 | 80185 | 63540 | 70385 | 62465 | 6225 | inactive
sbb | 2 | 1.08e5 | 1.23e5 | 1.40e5 | 1.32e5 | 8170 | inactive
PpD5 | 1 | 49640 | 40870 | 59760 | 52715 | 4040 | inactive
gwl | 1 | 2.08e5 | 2.04e5 | 3.08e5 | 3.54e5 | 13990 | inactive
CG11983 | 1 | 40195 | 56995 | 44230 | 45480 | 3085 | inactive
CG7101 | 1 | 1.14e5 | 1.06e5 | 92630 | 59055 | 9335 | inactive
CG14072 | 1 | 1.46e5 | 1.41e5 | 78630 | 1.01e5 | 19120 | inactive
Jon25Biii | 1 | 82070 | 56885 | 80995 | 83605 | 5325 | inactive
Bx42 | 1 | 38905 | 36305 | 25945 | 22182 | 2665 | inactive
CG9449 | 1 | 1.02e5 | 64305 | 72740 | 50740 | 5615 | inactive
ATP8 (retired record) | 1 | 82305 | 1.02e5 | 1.37e5 | 1.38e5 | 9695 | inactive
CG9143 | 1 | 97255 | 1.02e5 | 1.94e5 | 2.66e5 | 8870 | inactive
sd | 1 | 66375 | 74520 | 84225 | 81365 | 8630 | inactive
sd | 2 | – | – | – | – | – | inactive
car | 1 | 1.53e5 | 1.59e5 | 1.33e5 | 82605 | 13495 | inactive
Acox57D-p | 1 | 82120 | 63505 | 55550 | 50385 | 4875 | inactive
CG5290 | 1 | 1.46e5 | 1.49e5 | 92560 | 1.53e5 | 9378 | inactive
tbrd-1 | 1 | 1.94e5 | 1.70e5 | 2.36e5 | 1.89e5 | 14395 | inactive
RhoL | 1 | 1.43e5 | 1.77e5 | 1.04e5 | 1.03e5 | 10545 | inactive
TrxT | 1 | – | – | – | – | – | inactive
CG4000 | 1 | 2.03e5 | 2.34e5 | 1.80e5 | 1.86e5 | 12385 | inactive
CG4000 | 2 | – | – | – | – | – | inactive
CR13656 | 1 | 1.97e5 | 1.71e5 | 1.76e5 | 1.89e5 | 15020 | inactive
CR13656 | 2 | 1.67e5 | 1.84e5 | 2.04e5 | 2.48e5 | 14625 | inactive
Prx6a | 1 | 1.56e5 | 1.43e5 | 1.68e5 | 1.76e5 | 19940 | active
AhcyL2 | 1 | 2.43e5 | 2.46e5 | 2.32e5 | 2.25e5 | 20700 | inactive
CG43339 + CG43338 | 1 | 2.44e5 | 2.36e5 | 2.15e5 | 1.98e5 | 17855 | inactive
Eb1 | 1 | 2.09e5 | 2.22e5 | 2.02e5 | 2.19e5 | 14540 | inactive
OSCP1 | 1 | 1.04e5 | 1.01e5 | 1.17e5 | 1.30e5 | 9115 | inactive
Tpl94D | 1 | 1.01e5 | 75725 | 1.18e5 | 89115 | 11720 | inactive
